Record: PubChem BioAssay AID686938 (Drosophila RNAi Screening Center, 2013)

Screen: 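Fly genes required for calcium entry once internal stores are emptied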 (primary screen)
Cell system: Drosophila S2R+ cells
Reagents: long dsRNA against Drosophila genes, about 0.25 µg dsRNA per well, roughly 10,000 cells
Duration: 5 days of knock-down before the calcium assay
Conditions: thapsigargin (SERCA pump blocker) to empty calcium stores; entry signal taken 4 min after adding it
Read-out: 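Duplicate raw fluo-4 intensities per well from a plate reader, at rest and four minutes after thapsigargin emptied calcium stores; entry-to-rest ratio filled for only some wells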
Direction: calcium entry signal: higher = stronger calcium signal after store depletion; entry to resting ratio: higher = more calcium entry relative to resting level; resting calcium signal: higher = higher resting calcium signal
Hit rule: 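Hit if the duplicate-averaged plate z-score for entry over resting signal is under −3; wells with weak total dye signal (Fmax z < −2) or more than 5 off-targets removed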
Meaning of the calls: active = strongly reduced calcium entry; inactive = no strong reduction
The screen tested about 23,000 reagents; this is a random part of those with a known target gene and a result. Over the whole deposit, 75 (0.33%) were called active. 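Raw plate signals without normalisation; calls rest on plate z-scores that were not deposited; ratio present for only 364 wells.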 The numbers tell different reagents against one gene apart. Names joined by + are all predicted targets of the reagent. Not given: the dose of the treatment.

gene | reagent | calcium entry signal, replicate 1 (fluorescence units) | calcium entry signal, replicate 2 (fluorescence units) | entry to resting ratio | resting calcium signal, replicate 1 (fluorescence units) | resting calcium signal, replicate 2 (fluorescence units) | activity call
lt (light) | 1 | 4.69e7 | 4.74e7 | – | 2.33e7 | 2.25e7 | inactive
CG42535 | 1 | 4.47e7 | 3.56e7 | – | 2.40e7 | 1.67e7 | inactive
CG34267 | 1 | 3.79e7 | 4.98e7 | – | 2.06e7 | 2.26e7 | inactive
Rab1 | 1 | 1.40e7 | 1.87e7 | – | 1.07e7 | 1.17e7 | active
CG14629 | 1 | 3.78e7 | 4.94e7 | 1.8 | 2.06e7 | 2.23e7 | inactive
HmgZ (HMG protein Z) | 1 | 3.08e7 | 3.63e7 | – | 1.52e7 | 3.29e7 | inactive
HmgZ (HMG protein Z) | 2 | 5.26e7 | 1.73e7 | – | 2.60e7 | 9.82e6 | inactive
CG4949 | 1 | 5.23e7 | 5.38e7 | – | 2.13e7 | 2.02e7 | inactive
gol (goliath) | 1 | 3.17e7 | – | – | 1.65e7 | – | inactive
CG31933 | 1 | 3.01e7 | 3.84e7 | – | 1.57e7 | 1.71e7 | inactive
sdt (stardust) | 1 | 4.38e7 | 3.81e7 | – | 2.24e7 | 1.89e7 | inactive
sdt (stardust) | 2 | 4.20e7 | 3.33e7 | – | 2.00e7 | 1.64e7 | inactive
sdt (stardust) | 3 | 3.14e7 | 4.10e7 | – | 1.67e7 | 1.86e7 | inactive
sdt (stardust) | 4 | 2.87e7 | 3.96e7 | – | 1.39e7 | 1.89e7 | inactive
sdt (stardust) | 5 | 3.08e7 | 4.45e7 | – | 1.57e7 | 2.13e7 | inactive
sdt (stardust) | 6 | 2.52e7 | 2.85e7 | – | 1.30e7 | 1.64e7 | inactive
sdt (stardust) | 7 | 1.81e7 | 2.63e7 | – | 1.16e7 | 1.47e7 | inactive
sdt (stardust) | 8 | 3.46e7 | 3.38e7 | – | 1.86e7 | 1.74e7 | inactive
sdt (stardust) | 9 | 3.67e7 | 3.24e7 | – | 1.70e7 | 1.42e7 | inactive
Dus3 (Dihydrouridine synthase 3) | 1 | 4.60e7 | 4.64e7 | – | 1.93e7 | 2.11e7 | inactive
Adar (Adenosine deaminase acting on RNA) | 1 | 3.77e7 | 4.64e7 | 2 | 1.90e7 | 1.99e7 | inactive
CG6171 | 1 | 4.07e7 | 5.06e7 | – | 1.64e7 | 2.20e7 | inactive
lqfR (liquid facets-Related) | 1 | 3.18e7 | 3.37e7 | – | 1.69e7 | 1.53e7 | inactive
lqfR (liquid facets-Related) | 2 | 3.29e7 | 3.96e7 | – | 4.41e7 | 1.96e7 | inactive
CG13739 | 1 | 3.58e7 | 3.37e7 | – | 1.88e7 | 1.53e7 | inactive
CG13739 | 2 | 3.55e7 | 3.30e7 | – | 1.78e7 | 1.54e7 | inactive
Pgm2a (Phosphoglucomutase 2a) | 1 | 4.81e7 | 4.46e7 | – | 2.02e7 | 1.92e7 | inactive
fat-spondin | 1 | 4.25e7 | 3.82e7 | – | 1.98e7 | 1.84e7 | inactive
CG7829 | 1 | 4.33e7 | 6.08e7 | – | 2.22e7 | 2.58e7 | inactive
Mtr3 | 1 | 3.17e7 | 2.09e7 | – | 1.92e7 | 1.19e7 | inactive
Obp59a (Odorant-binding protein 59a) | 1 | 3.56e7 | 4.81e7 | – | 1.78e7 | 2.15e7 | inactive
Vajk4 | 1 | 2.34e7 | 1.83e7 | – | 1.08e7 | 8.85e6 | inactive
Vajk4 | 2 | 4.12e7 | 4.24e7 | – | 1.84e7 | 1.97e7 | inactive
TkR99D (Tachykinin-like receptor at 99D) | 1 | 4.11e7 | 5.00e7 | – | 2.11e7 | 2.26e7 | inactive
tara (taranis) | 1 | 3.55e7 | 5.29e7 | – | 1.88e7 | 8.58e7 | inactive
tara (taranis) | 2 | 3.90e7 | 3.40e7 | – | 1.86e7 | 1.58e7 | inactive
PIG-F (Phosphatidylinositol glycan anchor biosynthesis class F) | 1 | 2.78e7 | 4.68e7 | – | 1.28e7 | 2.03e7 | inactive
CG14500 | 1 | 3.72e7 | 4.53e7 | – | 1.83e7 | 2.05e7 | inactive
Polr2L (RNA polymerase II, I and III subunit L) | 1 | 1.88e7 | 1.91e7 | – | 1.17e7 | 1.01e7 | inactive
Rrp47 (Ribosomal RNA processing 47) | 1 | 2.91e7 | 2.61e7 | – | 1.49e7 | 1.33e7 | inactive
otu (ovarian tumor) | 1 | 3.60e7 | 4.44e7 | – | 1.73e7 | 2.05e7 | inactive
nan (nanchung) | 1 | 4.31e7 | 5.31e7 | – | 1.93e7 | 2.24e7 | inactive
CNMa (CNMamide) | 1 | 3.80e7 | 3.48e7 | – | 1.97e7 | 1.72e7 | inactive
mrva (minerva) | 1 | 4.34e7 | 5.04e7 | – | 3.08e7 | 2.59e7 | inactive
mrva (minerva) | 2 | 2.17e7 | 5.16e7 | – | 1.04e7 | 2.23e7 | inactive
Btk (Bruton tyrosine kinase) | 1 | 3.04e7 | 5.09e7 | – | 1.43e7 | 1.99e7 | inactive
Btk (Bruton tyrosine kinase) | 2 | 5.08e7 | – | – | 2.23e7 | – | inactive
Btk (Bruton tyrosine kinase) | 3 | 4.72e7 | 3.75e7 | – | 2.15e7 | 1.52e7 | inactive
CG12538 | 1 | 3.12e7 | 5.26e7 | – | 1.64e7 | 7.29e7 | inactive
CG8952 | 1 | 3.67e7 | 4.14e7 | – | 1.82e7 | 1.84e7 | inactive
CG44014 + CG44013 | 1 | 2.67e7 | 6.05e7 | – | 1.34e7 | 5.93e7 | inactive
Or23a (Odorant receptor 23a) | 1 | 3.53e7 | 3.55e7 | – | 1.70e7 | 1.65e7 | inactive
Lon (Lon protease) | 1 | 2.34e7 | 3.54e7 | – | 1.11e7 | 2.51e7 | inactive
CG17780 + CG17781 | 1 | 3.66e7 | 4.63e7 | – | 2.01e7 | 1.92e7 | inactive
CG13994 | 1 | 3.77e7 | 3.30e7 | – | 1.85e7 | 1.55e7 | inactive
Gmer (GDP-4-keto-6-deoxy-D-mannose 3,5-epimerase/4-reductase) | 1 | 3.99e7 | – | – | 2.00e7 | – | inactive
CG34302 | 1 | 3.37e7 | 3.86e7 | – | 1.69e7 | 1.79e7 | inactive
RpL18A (Ribosomal protein L18A) | 1 | 1.64e7 | 1.15e7 | – | 1.20e7 | 8.77e6 | inactive
